In paper PMC6499541:
Results are given in words; binding and its absence hold for the method and conditions named. Binding seen in cells or lysates may run through a third protein. Binding can be weak; no strength is given. For part of these data: Where a sequence is shown, tags or fusion partners need not be part of it.

By UniProt entry, the sequences of proteins in these tests, tags left out. Where a name states a change or a piece, a line headed by the entry shows the natural chain unless it says otherwise.
UniProt Q3UH93: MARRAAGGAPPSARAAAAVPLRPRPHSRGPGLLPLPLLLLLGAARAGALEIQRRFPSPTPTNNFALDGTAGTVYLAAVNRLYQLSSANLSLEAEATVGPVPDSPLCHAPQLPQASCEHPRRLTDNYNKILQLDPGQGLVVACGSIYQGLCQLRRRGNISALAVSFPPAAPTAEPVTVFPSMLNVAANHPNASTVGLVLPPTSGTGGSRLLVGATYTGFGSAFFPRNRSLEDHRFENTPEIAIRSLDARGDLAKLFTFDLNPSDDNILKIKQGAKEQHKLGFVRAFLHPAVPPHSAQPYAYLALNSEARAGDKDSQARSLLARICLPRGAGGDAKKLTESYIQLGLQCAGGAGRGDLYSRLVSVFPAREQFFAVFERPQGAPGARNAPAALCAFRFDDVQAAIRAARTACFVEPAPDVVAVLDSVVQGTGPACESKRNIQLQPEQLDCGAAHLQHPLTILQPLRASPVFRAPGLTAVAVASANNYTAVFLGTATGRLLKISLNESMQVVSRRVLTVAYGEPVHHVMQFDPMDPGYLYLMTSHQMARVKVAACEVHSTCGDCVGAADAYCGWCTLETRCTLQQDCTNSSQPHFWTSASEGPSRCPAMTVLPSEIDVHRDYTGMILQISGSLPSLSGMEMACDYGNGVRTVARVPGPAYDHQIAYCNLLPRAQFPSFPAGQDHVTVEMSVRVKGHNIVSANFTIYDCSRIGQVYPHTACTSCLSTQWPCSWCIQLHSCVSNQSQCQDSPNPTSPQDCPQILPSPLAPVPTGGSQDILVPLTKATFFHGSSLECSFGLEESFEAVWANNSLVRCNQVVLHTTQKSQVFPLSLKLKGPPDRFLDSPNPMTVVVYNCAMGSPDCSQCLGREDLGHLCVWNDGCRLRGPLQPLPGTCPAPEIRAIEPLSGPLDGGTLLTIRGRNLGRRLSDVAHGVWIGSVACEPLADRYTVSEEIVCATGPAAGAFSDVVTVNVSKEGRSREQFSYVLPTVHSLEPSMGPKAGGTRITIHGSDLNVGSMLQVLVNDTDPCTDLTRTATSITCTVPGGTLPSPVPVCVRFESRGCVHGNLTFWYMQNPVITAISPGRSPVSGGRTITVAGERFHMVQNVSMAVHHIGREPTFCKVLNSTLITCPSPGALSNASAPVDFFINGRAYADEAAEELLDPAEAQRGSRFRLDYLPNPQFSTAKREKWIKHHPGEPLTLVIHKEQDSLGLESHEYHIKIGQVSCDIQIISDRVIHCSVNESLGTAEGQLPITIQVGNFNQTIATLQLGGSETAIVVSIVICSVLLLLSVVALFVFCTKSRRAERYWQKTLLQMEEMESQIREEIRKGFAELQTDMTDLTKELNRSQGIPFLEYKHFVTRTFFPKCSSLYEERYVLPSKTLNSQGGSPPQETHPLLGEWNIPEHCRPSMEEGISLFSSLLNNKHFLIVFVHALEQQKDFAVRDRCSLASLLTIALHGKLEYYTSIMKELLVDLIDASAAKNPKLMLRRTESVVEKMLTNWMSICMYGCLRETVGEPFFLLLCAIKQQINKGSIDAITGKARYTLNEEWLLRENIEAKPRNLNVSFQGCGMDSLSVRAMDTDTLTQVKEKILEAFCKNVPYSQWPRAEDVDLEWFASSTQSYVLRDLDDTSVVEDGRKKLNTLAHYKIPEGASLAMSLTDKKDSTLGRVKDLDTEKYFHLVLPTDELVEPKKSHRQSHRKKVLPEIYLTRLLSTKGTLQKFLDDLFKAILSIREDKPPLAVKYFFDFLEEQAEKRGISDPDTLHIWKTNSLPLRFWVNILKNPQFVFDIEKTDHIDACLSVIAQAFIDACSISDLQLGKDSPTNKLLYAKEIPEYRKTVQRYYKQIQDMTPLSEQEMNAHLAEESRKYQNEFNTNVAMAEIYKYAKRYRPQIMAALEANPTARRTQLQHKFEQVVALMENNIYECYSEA

How the values were obtained:
Assay in all cases: co-IP; COS-7 cells co-transfected with V5-tagged mPLXND1 tails and FLAG-tagged mGIPC1 forms; lysis in 50 mM Tris pH 7.5, 5 mM EDTA, 150 mM NaCl, 1% Triton X-100; anti-FLAG immunoprecipitation overnight at 4°C with Protein A/G agarose; V5 co-immunoprecipitates detected by Western blot
[1] = biological target: FLAG-tagged full murine GIPC1 (FLAG-mGIPC1^WT) (mouse) (UniProt Q9Z0G0)
[2] = biological target: FLAG-tagged GH1 domain of murine GIPC1 (FLAG-mGIPC1^GH1) (mouse) (UniProt Q9Z0G0)
[3] = biological target: T1, FLAG-tagged PDZ domain of murine GIPC1 (FLAG-mGIPC1^PDZ) (mouse) (UniProt Q9Z0G0)
T1 sequence: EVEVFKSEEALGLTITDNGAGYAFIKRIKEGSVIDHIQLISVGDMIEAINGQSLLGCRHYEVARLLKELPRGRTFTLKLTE

Measured: binding

V5-tagged cytosolic tail of wild-type murine PLXND1 (V5-C-mPLXND1^WT) (from UniProt Q3UH93) (domain or fragment)
binds: all assays above
